# PubChem BioAssay AID504793, Drosophila RNAi Screening Center, 2011
# Screen: 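Genes required for cells to halt at G2/M after double-strand DNA breaks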 (primary screen)
# System: Drosophila S2R+ cells
# Knock-down reagent: long dsRNA against Drosophila genes, about 0.25 µg dsRNA per well
# Timing: 4 days of dsRNA, then 4 hours of drug before read-out
# Conditions: doxorubicin 0.5 µM for 4 hours to cause double-strand breaks, in cells also given a low, harmless dose of dsRNA against nbs to sensitise the assay
# Detection: 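Mitotic index as the number of phospho-histone H3-positive cells in each well following doxorubicin, given as raw counts without normalisation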
# Reading the numbers: mitotic cells: higher = more cells in mitosis, weaker G2 arrest
# Call rule: 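a call needs confirmation in secondary tests, with other dsRNAs and a check of mitotic timing without damage, not just a high primary count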
# Meaning of the calls: active = confirmed in follow-up tests; inactive = not confirmed
# The deposit covers about 23,000 reagents; below is an unselected part of those with a known target gene and a result. Of all reagents, 62 (0.27%) are marked active. 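Calls come from follow-up tests whose scores are not deposited, so confirmed genes may have low counts here; counts are not normalised per plate.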 Raw values are not corrected between plates. Names joined by + are all predicted targets of the reagent.
predicted target,DRSC id,"mitotic cells, replicate 1",activity call
Plzf (GeneID 34622),DRSC02994,7,inactive
Adf1 (GeneID 47082),DRSC04941,15,inactive
Adf1 (GeneID 47082),DRSC04963,11,inactive
Pvf1 (GeneID 32876),DRSC20024,3,inactive
CG33695 + cana,DRSC01163,5,inactive
CG33695 + cana,DRSC03503,8,inactive
erm (GeneID 326152),DRSC00700,5,inactive
Prosbeta6 (GeneID 39855),DRSC11256,105,inactive
igl (GeneID 36681),DRSC07631,7,inactive
igl (GeneID 36681),DRSC28961,6,inactive
CG6055 (GeneID 34027),DRSC02923,10,inactive
Cp7Fa (GeneID 3885650),DRSC18032,13,inactive
Cp7Fa (GeneID 3885650),DRSC18033,16,inactive
Cp7Fa (GeneID 3885650),DRSC24279,8,inactive
Klp3A (GeneID 31240),DRSC18676,5,inactive
Klp3A (GeneID 31240),DRSC21625,8,inactive
GstO1 (GeneID 38975),DRSC10688,10,inactive
GstO1 (GeneID 38975),DRSC26064,3,inactive
CG33639 (GeneID 32803),DRSC19966,11,inactive
CG33639 (GeneID 32803),DRSC22820,6,inactive
CG33639 (GeneID 32803),DRSC23778,3,inactive
CG12824 (GeneID 35727),DRSC06173,5,inactive
CG4393 (GeneID 42764),DRSC15573,6,inactive
CG7492 (GeneID 38859),DRSC10855,8,inactive
GILT2 (GeneID 42788),DRSC14196,10,inactive
COX6AL (GeneID 246451),DRSC21454,10,inactive
CG7201 (GeneID 38929),DRSC10786,10,inactive
cdi (GeneID 42289),DRSC16922,6,inactive
cdi (GeneID 42289),DRSC28376,,inactive
CG15548 (GeneID 43667),DRSC15086,9,inactive
CG15548 (GeneID 43667),DRSC26941,1,inactive
CG5281 (GeneID 41375),DRSC15761,3,inactive
beta4GalNAcTA (GeneID 36585),DRSC05944,7,inactive
Ilp5 (GeneID 2768992),DRSC08998,8,inactive
Amy-p (GeneID 47764),DRSC06786,6,inactive
CG6013 (GeneID 42286),DRSC15947,11,inactive
CG6013 (GeneID 42286),DRSC29573,2,inactive
CG15429 (GeneID 33637),DRSC00444,,inactive
CG15429 (GeneID 33637),DRSC26501,10,inactive
CG10126 (GeneID 41579),DRSC14191,7,inactive
MetRS-m (GeneID 41733),DRSC16443,10,inactive
MetRS-m (GeneID 41733),DRSC16515,9,inactive
Wdr24 (GeneID 43505),DRSC14151,10,inactive
Dhit (GeneID 37037),DRSC07411,4,inactive
Dhit (GeneID 37037),DRSC25629,8,inactive
